# Laboratory results from the supplement of paper PMC9844399.
# For some assays here: Most of the hits are listed elsewhere, so they are rarer here than in the full data. For some assays here: This list holds what a sample rich in lowest values left over.
# Columns and labels:
# HeLa [1] = assay: nuclear count per well, robust Z-score vs DMSO; higher = more cells (less toxicity); conditions: 10 µM; 6 h
# HeLa [2] = assay: MALAT1 nuclear FISH intensity, robust Z-score vs DMSO; higher = more nuclear MALAT1 lncRNA, active = -3 or less; conditions: 10 µM; 6 h
# 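Throughout, for MALAT1 nuclear FISH intensity, robust Z-score vs DMSO: High-content confocal imaging of branched-DNA amplified FISH in 384-well plates, Hoechst-defined nuclei, score is well value minus plate DMSO median over DMSO robust SD, four wells per compound.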
# 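Throughout, for nuclear count per well, robust Z-score vs DMSO: Hoechst-stained nuclei counted by automated confocal imaging of four fields per well in 384-well plates, with the robust Z-score based on the per-plate DMSO median and robust SD.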
smiles,measurement,setting,value
Cc1c(C(=O)NN2CCCCC2)nn(-c2ccc(Cl)cc2Cl)c1-c1ccc(I)cc1,nuclear count per well,HeLa [1],0.413
same,MALAT1 nuclear FISH intensity,HeLa [2],inactive: -0.0855
